# Results reported in article PMC11272775, “Epigenetic memory is governed by an effector recruitment specificity toggle in Heterochromatin Protein 1” (Nature Communications, 2024).
# Protein sequences, listed by entry. Tags and fused reporters are not part of them.
# UniProt P40381: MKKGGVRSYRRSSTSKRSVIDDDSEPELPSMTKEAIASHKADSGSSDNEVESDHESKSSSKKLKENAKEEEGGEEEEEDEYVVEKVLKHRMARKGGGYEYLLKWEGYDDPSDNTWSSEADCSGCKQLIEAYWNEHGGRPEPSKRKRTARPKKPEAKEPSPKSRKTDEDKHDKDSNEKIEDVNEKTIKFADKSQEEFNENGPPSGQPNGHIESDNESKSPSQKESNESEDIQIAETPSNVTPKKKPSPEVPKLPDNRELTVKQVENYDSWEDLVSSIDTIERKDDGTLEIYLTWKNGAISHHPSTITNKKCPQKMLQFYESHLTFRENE
# UniProt O94603: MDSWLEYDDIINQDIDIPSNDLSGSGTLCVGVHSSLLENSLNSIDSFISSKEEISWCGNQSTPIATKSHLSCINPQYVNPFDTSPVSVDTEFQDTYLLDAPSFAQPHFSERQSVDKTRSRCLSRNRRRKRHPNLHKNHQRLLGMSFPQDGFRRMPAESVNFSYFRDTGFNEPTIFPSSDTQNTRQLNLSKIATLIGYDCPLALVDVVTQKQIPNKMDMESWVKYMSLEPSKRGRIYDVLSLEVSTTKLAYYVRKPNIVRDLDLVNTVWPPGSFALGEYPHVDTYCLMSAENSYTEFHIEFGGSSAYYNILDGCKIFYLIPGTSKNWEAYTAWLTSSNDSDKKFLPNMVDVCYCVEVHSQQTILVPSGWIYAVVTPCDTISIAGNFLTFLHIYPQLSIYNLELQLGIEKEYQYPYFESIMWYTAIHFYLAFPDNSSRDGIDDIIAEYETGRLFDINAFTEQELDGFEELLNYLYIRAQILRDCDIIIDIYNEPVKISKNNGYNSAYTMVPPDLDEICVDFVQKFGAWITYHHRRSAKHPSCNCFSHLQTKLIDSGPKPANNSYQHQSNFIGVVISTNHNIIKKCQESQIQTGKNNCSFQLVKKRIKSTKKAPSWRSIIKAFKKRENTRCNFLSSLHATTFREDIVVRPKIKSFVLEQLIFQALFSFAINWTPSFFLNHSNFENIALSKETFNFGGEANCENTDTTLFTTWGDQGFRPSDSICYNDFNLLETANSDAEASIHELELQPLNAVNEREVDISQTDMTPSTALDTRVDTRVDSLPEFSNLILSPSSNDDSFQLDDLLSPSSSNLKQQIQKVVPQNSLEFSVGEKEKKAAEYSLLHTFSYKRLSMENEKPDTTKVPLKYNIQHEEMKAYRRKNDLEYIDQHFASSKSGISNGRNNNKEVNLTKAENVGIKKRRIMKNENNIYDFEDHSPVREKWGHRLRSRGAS
# Biological target: 3XFLAG-Swi6-WT (S. pombe strain) (S. pombe) (UniProt P40381)
# Assay: affinity purification with mass spectrometry; tandem mass tag affinity purification of N-terminal 3XFLAG-Swi6 from S. pombe; normalised to untagged Swi6, abundance relative to 3XFLAG-Swi6-WT (N = 3)
substance,measurement,value
Epe1 (from UniProt O94603 1-948),binding,binds

# Results are given in words; binding and its absence hold for the method and conditions named. In cells and extracts the contact can be indirect. These calls come from enrichment with a bait or labelling near it, and not all partners need be listed.
